# PubChem BioAssay AID504764, Drosophila RNAi Screening Center, 2011
# Test: 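Genes whose knock-down alters Notch-dependent transcription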 (primary screen)
# System: Drosophila Kc167 cells
# Reagents: long dsRNA against Drosophila genes
# Time to read-out: about 5 days (4 days dsRNA, then 24 h after transfection)
# Treatment: transfection of constitutively active membrane-tethered Notch lacking the extracellular domain, read 24 h later
# Measurement: 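Firefly luciferase from an E(spl)m3 reporter with active Notch, plus control-promoter and uninduced reporter wells for normalisation; unnormalised counts, duplicate wells a and b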
# Direction: induced reporter light, run 1, well a and induced reporter light, run 1, well b: higher = more light from the Notch target reporter with active Notch; control promoter light, run 1, well a and control promoter light, run 1, well b: higher = more light from the viral control promoter (cell number, transfection, viability); uninduced reporter light, run 1, well a: higher = more light from the Notch target reporter without active Notch
# Rule for the call: 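Wells with low control signal or poorly matching duplicates excluded; duplicates averaged; per source plate, z beyond ±2 for induced/control log2 ratio or beyond ±1.8 for induced/uninduced marks a hit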
# Calls: active = modifier hit (raised or lowered Notch signal); inactive = not a hit
# In all, the deposit lists about 22,000 reagents; shown is a random part of those with a known target gene and a result. Over the whole deposit, 403 (1.9%) got an active call. 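Unnormalised raw counts per well; ratio z-scores behind the hit calls and whether each hit raises or lowers signal are not deposited.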 A number with no mark means an inactive call. Not given: the amount of reagent.
Gene,dsRNA,"induced reporter light, run 1, well a","induced reporter light, run 1, well b","control promoter light, run 1, well a","control promoter light, run 1, well b","uninduced reporter light, run 1, well a"
smash,DRSC12139,1.22e5,1.20e5,82100,90620,9065
smash,DRSC12239,24125,27550,29805,24730,2000
CG8993,DRSC08616,84815,1.23e5,1.34e5,1.25e5,8610
Rgk3,DRSC04250,45840,48915,51460,43940,2350
Rgk3,DRSC04251,53945,46470,45340,72010,2335
Rgk3,DRSC04254,56055,48180,51135,44185,2428
Rgk3,DRSC04255,51675,40120,50130,40305,2685
msopa,DRSC11895,4075,3570,4280,2688,1170
CG34396,DRSC04245,42535,42865,56730,53210,3240
CG34396,DRSC04246,48855,54620,86270,55595,3695
Zip88E,DRSC15562,2.77e5,2.61e5,2.32e5,2.23e5,17015
CG13829,DRSC14679,1.74e5,1.48e5,2.05e5,1.99e5,12800
CG5612,DRSC15844,1.61e5,1.64e5,2.27e5,2.06e5,14170
msps,DRSC17004,1.31e5,1.23e5,1.86e5,1.57e5,14428
Cnb,DRSC08569,68110,70785,1.04e5,1.22e5,5195
BomT3,DRSC13537,75000,67225,71280,69070,8240
BomT3,DRSC15871,1.38e5,1.52e5,2.12e5,2.25e5,11130
Cp18,DRSC11120,1.65e5,1.56e5,1.70e5,1.61e5,7192
AIF,DRSC00696,1.40e5 (active),2.14e5,2.68e5,2.78e5,17832
stretch (retired record),DRSC14347,4575,3785,6695,5820,305
stretch (retired record),DRSC14512,84775,98850,84330,76210,7640
stretch (retired record),DRSC14541,70005,95145,97625,62735,3992
stretch (retired record),DRSC14542,9000,9945,11188,11685,2475
stretch (retired record),DRSC14543,79180,96930,1.23e5,97540,6555
